Test results reported in patent US20230330254A1 (Regeneron Pharmaceuticals, Inc., priority 2022, published 2023).

Assay: general procedure: Fmoc solid-phase peptide synthesis; Rink amide MBHA resin (loading: 0.5-0.6 mmol/g); HATU/DIPEA
[1] = late stage modification step, analytical HPLC, 220 nm, PDA detector
[2] = whole synthesis, analytical HPLC, 220 nm, PDA detector

Substance: benzyl 2-(2-(2-(2-aminoacetamido)acetamido)acetamido)acetate hydrochloride
- step yield (late stage modification step): 69.77% yield
- crude purity (method not given) [1]: 70% purity

Substance: COT- G4- (R)Ser-P9
- conjugation yield (conjugation step): 36.34%
- final purity (method not given) (conjugation step, analytical HPLC, 220 nm, PDA detector): 99.72%

Substance: benzyl 2,2-dimethyl-4,7,10,13-tetraoxo-3-oxa-5,8,11,14-tetraazahexadecan-16-oate
- step yield (coupling step): 85.00% yield
- crude purity (method not given) (coupling step, analytical HPLC, 220 nm, PDA detector): 95% purity

Substance: (S)-1-(9H-fluoren-9-yl)-3,6,9,12,15-pentaoxo-5-((((2R,3R,4S,5R,6R)-3,4,5-triacetoxy-6-(acetoxymethyl)tetrahydro-2H-pyran-2-yl)oxy)methyl)-2-oxa-4,7,10,13,16-pentaazaoctadecan-18-oic acid
- step yield (late stage modification step): 59.81% yield
- crude purity (method not given) [1]: 95% purity

Substance: (3S,6S,9S,12S,15S,21S)-21-((2H-tetrazol-5-yl)methyl)-3-(((S)-1-(((S)-1-amino-5-(3,5-dimethylphenyl)-1-oxopentan-2-yl)amino)-3-(4′-(4-azidobutoxy)-2′-ethyl-[1,1′-biphenyl]-4-yl)-1-oxopropan-2-yl)carbamoyl)-12-(2-fluorobenzyl)-9,15-bis((R)-1-hydroxyethyl)-6-(hydroxymethyl)-28-(1H-imidazol-5-yl)-12,24,24-trimethyl-5,8,11,14,17,20,23,26-octaoxo-4,7,10,13,16,19,22,25-octaazaoctacosan-1-oic acid
- isolated yield (whole synthesis): 2.63% yield
- final HPLC purity [2]: 98.48% purity
- final purity (method not given) [2]: 91% purity
